Experimental data taken from article PMC7862700.
Only a part is listed here, and it is no random draw. At the low end of the ranking, values are background and their order means little.

By UniProt entry, the sequences of proteins in these tests, tags left out. Where a name states a change or a piece, a line headed by the entry shows the natural chain unless it says otherwise.
UniProt O43186: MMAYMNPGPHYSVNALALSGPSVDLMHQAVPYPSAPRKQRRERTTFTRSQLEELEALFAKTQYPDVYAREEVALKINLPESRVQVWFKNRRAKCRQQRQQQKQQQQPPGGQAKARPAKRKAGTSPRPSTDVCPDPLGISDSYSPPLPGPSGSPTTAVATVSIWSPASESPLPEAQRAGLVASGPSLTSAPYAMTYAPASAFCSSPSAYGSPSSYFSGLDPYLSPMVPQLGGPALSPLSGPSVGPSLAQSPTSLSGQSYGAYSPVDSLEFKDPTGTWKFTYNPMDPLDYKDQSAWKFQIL

The sequences below were run against T1, FEV (UniProt Q99581) (assay: DAPPL (digital affinity profiling via proximity ligation, sequencing)). Conditions: 10 mM Tris-HCl pH 7.5, 50 mM NaCl, 1 mM DTT, 4% glycerol, room temperature, 30 min; GST-TFs on glutathione beads, 16-mer random dsDNA library, 0.1% …; high values mean tight binding; double strand, one strand shown; scale: fold enrichment (6-mer frequency, TF over GST control).
T1 sequence: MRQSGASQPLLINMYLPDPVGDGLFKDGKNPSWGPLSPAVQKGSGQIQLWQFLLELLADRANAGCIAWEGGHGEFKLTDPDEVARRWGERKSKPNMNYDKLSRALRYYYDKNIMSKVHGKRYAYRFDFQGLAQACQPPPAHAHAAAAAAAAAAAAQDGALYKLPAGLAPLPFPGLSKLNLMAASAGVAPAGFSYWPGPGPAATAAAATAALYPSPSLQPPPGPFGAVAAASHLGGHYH
In the case of CTATGC, the binding signal was 1.36.
With CGTTGT the binding signal was 0.967.
ATTTCG showed a binding signal of 1.25.
With TACTAT the binding signal was 1.31.
Sequence GAACTG has a binding signal of 0.929.
For TGGGTG, the binding signal was 0.957.
Sequence GCCACT has a binding signal of 1.31.
AGTTTT showed a binding signal of 0.929.
ACCCTG gave a binding signal of 1.02.
In the case of GGATGG, the binding signal was 0.996.
In the case of CACAAC, the binding signal was 1.31.
With GACTTC the binding signal was 3.36.
ACCGGC was tested, and the binding signal was 1.14.
Sequence GTTTGT has a binding signal of 0.912.
In the case of TATGAC, the binding signal was 1.25.
In the case of ACTTCT, the binding signal was 1.4.
CATCTC was tested, and the binding signal was 1.2.
CACGGA was tested, and the binding signal was 0.96.
With TGGGCT the binding signal was 1.35.
In the case of CATAGT, the binding signal was 0.905.
CCACTC was tested, and the binding signal was 1.27.
CTGAAA gave a binding signal of 1.25.
With CTCCGT the binding signal was 1.14.
CTGAAG was tested, and the binding signal was 1.05.
CCGGCT gave a binding signal of 1.8.
With GATCTA the binding signal was 0.991.
GTATCA showed a binding signal of 1.04.
Sequence ATGGCA has a binding signal of 1.44.
Work on AGGAAG yielded a binding signal of 1.24.
In the case of GTAGCT, the binding signal was 0.988.
With ACGATG the binding signal was 1.05.
For TTTTTT, the binding signal was 1.17.
ACGGCT showed a binding signal of 1.2.
Work on ATGAGG yielded a binding signal of 0.842.
AGTAAA gave a binding signal of 0.92.
In the case of ACGCGG, the binding signal was 0.926.
Sequence AATCAC has a binding signal of 1.09.
For CCACCT, the binding signal was 1.17.
GTTTAT showed a binding signal of 1.02.

What follows are sequences tested against CRX (UniProt O43186) in the same assay as above. Conditions: 10 mM Tris-HCl pH 7.5, 50 mM NaCl, 1 mM DTT, 4% glycerol, room temperature, 30 min; GST-TFs on glutathione beads, 16-mer random dsDNA library, 0.1% …; high values mean tight binding; double strand, one strand shown; scale: fold enrichment (6-mer frequency, TF over GST control).
For CTATGC, the binding signal was 1.15.
Work on CGTTGT yielded a binding signal of 0.792.
For ATTTCG, the binding signal was 1.45.
With TACTAT the binding signal was 1.48.
Sequence GAACTG has a binding signal of 0.743.
Sequence TGGGTG has a binding signal of 0.75.
With GCCACT the binding signal was 0.876.
AGTTTT was tested, and the binding signal was 0.907.
In the case of ACCCTG, the binding signal was 0.938.
Work on GGATGG yielded a binding signal of 0.815.
With CACAAC the binding signal was 0.87.
Work on GACTTC yielded a binding signal of 1.12.
In the case of ACCGGC, the binding signal was 0.874.
GTTTGT was tested, and the binding signal was 0.753.
For TATGAC, the binding signal was 1.23.
ACTTCT was tested, and the binding signal was 1.55.
In the case of CATCTC, the binding signal was 1.16.
CACGGA gave a binding signal of 0.694.
TGGGCT gave a binding signal of 1.3.
For CATAGT, the binding signal was 0.889.
In the case of CCACTC, the binding signal was 0.984.
Work on CTGAAA yielded a binding signal of 1.
For CTCCGT, the binding signal was 0.892.
Sequence CTGAAG has a binding signal of 0.989.
Work on CCGGCT yielded a binding signal of 1.6.
For GATCTA, the binding signal was 1.41.
GTATCA gave a binding signal of 0.988.
Work on ATGGCA yielded a binding signal of 1.11.
Sequence AGGAAG has a binding signal of 0.495.
Sequence GTAGCT has a binding signal of 1.02.
ACGATG gave a binding signal of 0.947.
For TTTTTT, the binding signal was 1.24.
ACGGCT showed a binding signal of 1.36.
With ATGAGG the binding signal was 0.81.
For AGTAAA, the binding signal was 0.97.
In the case of ACGCGG, the binding signal was 0.754.
Sequence AATCAC has a binding signal of 1.3.
For CCACCT, the binding signal was 0.885.
For GTTTAT, the binding signal was 1.33.
